Assay results from US20130178597A1, “POLYIMIDE PRECURSOR, POLYIMIDE, AND MATERIALS TO BE USED IN PRODUCING SAME” (UBE INDUSTRIES, LTD., priority 2010, published 2013).
At least one structure is not confirmed: it was looked up by name or label, or the drawing left a doubt.

Experiment: Light transmittance at 400 nm of trans-1,4-diaminocyclohexane powder, 10 mass % in pure water
Format: physicochemical
Settings: light path 1 cm
Protocol: A predetermined amount of trans-1,4-diaminocyclohexane powder was dissolved in pure water to obtain a 10 mass % aqueous solution. Using a MCPD-300 manufactured by Otsuka Electronics Co., Ltd., and a standard cell having a light path length of 1 cm, the light transmittance at 400 nm of the trans-1,4-diaminocyclohexane solution was measured using pure water as a blank.

With `N[C@H]1CC[C@H](N)CC1` [Example E1, trans-1,4-diaminocyclohexane] the “Light Transmittance at 400 nm (trans-1,4-diaminocyclohexane powder)” value was 96%.
